Some of the results follow.
How the values were obtained:
Assay in all cases: log2 fold change, soluble protein after heating vs DMSO (PISA); higher = thermal stabilisation; K562 cells, 10 uM, 30 min; active = over 0.2 and 3.5 SD of the protein, either way, in both replicates (recomputed)
erlotinib = compound: C#Cc1cccc(Nc2ncnc3cc(OCCOC)c(OCCOC)cc23)c1 [erlotinib]
Method in brief: (§1)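 Aliquots of K562 cells (2×10^6 cells/mL) treated with 10 μM compound for 30 min were heated for 3 min over 48°C-58°C. After pooling and extraction in PBS with 0.5% NP-40 at 4°C, soluble protein from a 21,000xg, 90 min spin was quantified by TMTpro 16plex LC-MS/MS with channel sums equalised. Thermal stability is expressed against control samples, from duplicates, as a log2 fold change.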

The chains behind the UniProt entries cited, without tags or fusion partners. Where a name states a change or a piece, a line headed by the entry shows the natural chain unless it says otherwise.
UniProt Q9NUN5: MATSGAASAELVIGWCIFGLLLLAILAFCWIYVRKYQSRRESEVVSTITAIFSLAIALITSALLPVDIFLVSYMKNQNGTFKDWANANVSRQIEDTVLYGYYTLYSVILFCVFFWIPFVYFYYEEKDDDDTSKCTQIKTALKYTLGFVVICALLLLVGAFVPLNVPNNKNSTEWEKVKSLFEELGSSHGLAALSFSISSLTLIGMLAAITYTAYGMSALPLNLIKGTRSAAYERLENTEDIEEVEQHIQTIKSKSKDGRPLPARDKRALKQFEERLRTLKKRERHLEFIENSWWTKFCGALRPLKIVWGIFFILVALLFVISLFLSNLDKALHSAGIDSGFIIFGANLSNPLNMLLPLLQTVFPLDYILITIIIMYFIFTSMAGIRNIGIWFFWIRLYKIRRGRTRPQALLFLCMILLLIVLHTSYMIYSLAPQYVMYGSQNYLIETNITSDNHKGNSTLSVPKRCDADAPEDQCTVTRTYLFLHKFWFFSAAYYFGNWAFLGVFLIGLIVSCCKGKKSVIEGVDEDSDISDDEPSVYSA
UniProt Q6P1Q0: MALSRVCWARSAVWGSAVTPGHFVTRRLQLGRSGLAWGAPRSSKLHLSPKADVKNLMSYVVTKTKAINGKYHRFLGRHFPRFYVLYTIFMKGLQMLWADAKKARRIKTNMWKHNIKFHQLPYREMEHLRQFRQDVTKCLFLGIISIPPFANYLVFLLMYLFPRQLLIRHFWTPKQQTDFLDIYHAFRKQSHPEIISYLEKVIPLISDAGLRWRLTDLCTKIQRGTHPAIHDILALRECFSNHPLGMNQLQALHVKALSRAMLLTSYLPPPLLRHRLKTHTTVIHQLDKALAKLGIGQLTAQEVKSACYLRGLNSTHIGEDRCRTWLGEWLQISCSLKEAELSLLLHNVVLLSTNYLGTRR
UniProt Q6YP21: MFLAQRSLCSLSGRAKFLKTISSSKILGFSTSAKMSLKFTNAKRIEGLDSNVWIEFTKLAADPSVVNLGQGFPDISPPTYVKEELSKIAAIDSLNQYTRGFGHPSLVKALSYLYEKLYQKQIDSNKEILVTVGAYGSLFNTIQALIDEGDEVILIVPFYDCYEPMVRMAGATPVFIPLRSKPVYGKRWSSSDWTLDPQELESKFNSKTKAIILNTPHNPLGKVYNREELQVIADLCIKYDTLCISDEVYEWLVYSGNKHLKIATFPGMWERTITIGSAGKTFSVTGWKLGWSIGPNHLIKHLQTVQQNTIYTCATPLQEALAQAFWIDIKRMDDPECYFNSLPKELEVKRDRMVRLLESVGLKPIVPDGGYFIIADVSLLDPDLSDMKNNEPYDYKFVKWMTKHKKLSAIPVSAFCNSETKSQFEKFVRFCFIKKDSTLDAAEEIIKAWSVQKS
UniProt Q86UP2: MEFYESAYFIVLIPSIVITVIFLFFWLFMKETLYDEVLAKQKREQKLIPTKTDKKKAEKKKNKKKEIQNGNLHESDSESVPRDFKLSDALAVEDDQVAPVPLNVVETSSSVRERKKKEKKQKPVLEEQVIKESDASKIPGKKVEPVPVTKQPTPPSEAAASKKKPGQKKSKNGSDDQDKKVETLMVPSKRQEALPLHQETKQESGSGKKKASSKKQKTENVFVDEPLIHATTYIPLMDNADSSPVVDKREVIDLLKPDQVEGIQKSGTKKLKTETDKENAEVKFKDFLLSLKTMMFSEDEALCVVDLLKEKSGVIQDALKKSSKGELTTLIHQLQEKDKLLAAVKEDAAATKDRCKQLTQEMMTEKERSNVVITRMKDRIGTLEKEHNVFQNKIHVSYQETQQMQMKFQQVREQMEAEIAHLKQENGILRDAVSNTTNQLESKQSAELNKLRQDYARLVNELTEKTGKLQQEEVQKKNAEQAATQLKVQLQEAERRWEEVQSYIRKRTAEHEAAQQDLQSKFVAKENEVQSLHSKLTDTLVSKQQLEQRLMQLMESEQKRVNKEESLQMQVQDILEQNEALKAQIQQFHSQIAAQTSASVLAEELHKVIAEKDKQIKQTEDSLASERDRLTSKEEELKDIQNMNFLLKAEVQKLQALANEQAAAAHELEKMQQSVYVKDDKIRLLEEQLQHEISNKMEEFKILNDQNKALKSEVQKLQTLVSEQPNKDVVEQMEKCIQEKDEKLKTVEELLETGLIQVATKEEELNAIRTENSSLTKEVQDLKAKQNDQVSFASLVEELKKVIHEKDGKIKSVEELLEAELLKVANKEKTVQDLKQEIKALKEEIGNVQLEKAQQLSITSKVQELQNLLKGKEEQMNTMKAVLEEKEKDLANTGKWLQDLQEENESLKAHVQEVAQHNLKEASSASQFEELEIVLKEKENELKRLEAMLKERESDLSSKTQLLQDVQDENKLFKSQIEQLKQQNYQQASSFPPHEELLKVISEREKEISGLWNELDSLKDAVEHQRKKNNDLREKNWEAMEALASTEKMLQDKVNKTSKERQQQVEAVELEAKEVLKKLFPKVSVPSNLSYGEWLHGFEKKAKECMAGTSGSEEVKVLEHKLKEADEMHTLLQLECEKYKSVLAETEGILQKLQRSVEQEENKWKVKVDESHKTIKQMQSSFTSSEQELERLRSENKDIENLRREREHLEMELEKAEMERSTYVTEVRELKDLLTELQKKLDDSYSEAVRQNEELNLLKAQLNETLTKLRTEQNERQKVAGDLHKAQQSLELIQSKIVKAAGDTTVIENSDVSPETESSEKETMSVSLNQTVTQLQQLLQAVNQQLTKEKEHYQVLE
UniProt P07195, whole entry, looked up: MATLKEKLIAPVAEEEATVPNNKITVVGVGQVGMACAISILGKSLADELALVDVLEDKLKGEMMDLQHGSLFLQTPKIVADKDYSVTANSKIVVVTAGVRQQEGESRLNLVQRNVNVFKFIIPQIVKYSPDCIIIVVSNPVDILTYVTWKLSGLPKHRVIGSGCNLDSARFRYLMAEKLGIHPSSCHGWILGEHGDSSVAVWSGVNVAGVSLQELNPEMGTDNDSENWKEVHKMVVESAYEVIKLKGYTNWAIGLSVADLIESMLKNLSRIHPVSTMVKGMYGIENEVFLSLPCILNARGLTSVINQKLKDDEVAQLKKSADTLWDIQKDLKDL
UniProt Q6ZN17: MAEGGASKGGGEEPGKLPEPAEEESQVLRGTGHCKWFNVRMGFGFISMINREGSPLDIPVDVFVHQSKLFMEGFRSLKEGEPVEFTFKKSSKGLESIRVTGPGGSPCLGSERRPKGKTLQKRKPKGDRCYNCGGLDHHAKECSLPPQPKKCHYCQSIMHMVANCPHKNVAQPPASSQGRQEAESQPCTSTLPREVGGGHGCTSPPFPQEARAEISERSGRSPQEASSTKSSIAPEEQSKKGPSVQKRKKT
UniProt Q96AG4: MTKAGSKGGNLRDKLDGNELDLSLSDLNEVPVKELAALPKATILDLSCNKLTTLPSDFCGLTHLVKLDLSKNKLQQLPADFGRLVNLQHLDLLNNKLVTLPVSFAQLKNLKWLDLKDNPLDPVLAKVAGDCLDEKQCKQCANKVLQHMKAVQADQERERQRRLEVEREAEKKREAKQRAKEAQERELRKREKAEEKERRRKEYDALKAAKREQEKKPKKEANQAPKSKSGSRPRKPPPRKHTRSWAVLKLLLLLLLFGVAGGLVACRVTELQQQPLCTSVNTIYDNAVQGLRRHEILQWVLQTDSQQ
UniProt P13473: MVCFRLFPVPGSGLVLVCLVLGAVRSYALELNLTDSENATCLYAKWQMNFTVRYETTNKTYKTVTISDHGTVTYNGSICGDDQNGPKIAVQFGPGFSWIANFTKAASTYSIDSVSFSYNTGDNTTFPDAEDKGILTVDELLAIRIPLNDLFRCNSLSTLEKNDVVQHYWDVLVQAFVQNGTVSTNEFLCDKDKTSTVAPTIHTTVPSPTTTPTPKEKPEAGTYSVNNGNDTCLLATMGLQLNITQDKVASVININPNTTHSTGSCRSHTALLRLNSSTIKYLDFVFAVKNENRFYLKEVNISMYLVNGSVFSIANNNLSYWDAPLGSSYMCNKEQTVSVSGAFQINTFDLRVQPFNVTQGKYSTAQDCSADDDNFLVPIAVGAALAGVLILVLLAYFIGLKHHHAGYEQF
UniProt O14910: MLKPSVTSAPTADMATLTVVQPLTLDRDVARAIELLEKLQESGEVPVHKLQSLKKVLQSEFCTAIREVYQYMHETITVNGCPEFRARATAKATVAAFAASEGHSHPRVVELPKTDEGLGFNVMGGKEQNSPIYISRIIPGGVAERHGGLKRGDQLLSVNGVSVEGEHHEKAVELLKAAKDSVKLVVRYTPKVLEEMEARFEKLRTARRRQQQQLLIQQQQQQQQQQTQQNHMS
UniProt P02750: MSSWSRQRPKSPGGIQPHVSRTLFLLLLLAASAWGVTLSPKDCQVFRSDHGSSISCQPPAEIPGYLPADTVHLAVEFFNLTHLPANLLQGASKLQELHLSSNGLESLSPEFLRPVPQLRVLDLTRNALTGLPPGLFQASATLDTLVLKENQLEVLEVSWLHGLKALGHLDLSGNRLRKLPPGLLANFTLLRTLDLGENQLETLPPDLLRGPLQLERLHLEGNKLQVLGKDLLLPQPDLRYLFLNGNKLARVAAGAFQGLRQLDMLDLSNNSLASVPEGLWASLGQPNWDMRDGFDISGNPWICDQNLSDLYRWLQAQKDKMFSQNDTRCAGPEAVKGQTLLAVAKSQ
UniProt Q92615, whole entry, looked up: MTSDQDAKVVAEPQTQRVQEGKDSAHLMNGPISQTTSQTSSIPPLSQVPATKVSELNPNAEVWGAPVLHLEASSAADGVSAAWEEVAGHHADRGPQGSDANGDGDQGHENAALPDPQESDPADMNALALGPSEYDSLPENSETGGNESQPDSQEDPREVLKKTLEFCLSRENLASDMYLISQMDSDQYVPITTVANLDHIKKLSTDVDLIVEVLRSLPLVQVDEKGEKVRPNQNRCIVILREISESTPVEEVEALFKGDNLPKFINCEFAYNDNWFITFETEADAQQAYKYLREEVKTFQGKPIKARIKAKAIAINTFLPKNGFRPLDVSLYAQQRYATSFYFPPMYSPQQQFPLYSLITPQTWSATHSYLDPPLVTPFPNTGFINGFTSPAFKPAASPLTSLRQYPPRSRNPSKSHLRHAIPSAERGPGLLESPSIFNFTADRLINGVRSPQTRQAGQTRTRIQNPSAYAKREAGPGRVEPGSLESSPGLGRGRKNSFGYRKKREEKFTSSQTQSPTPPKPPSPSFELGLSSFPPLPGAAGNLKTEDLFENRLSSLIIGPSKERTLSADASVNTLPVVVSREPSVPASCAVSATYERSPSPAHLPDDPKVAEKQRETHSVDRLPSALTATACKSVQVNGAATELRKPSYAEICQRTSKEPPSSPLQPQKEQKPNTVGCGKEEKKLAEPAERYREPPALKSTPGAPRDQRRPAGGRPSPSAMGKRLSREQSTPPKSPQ
UniProt Q96GY3: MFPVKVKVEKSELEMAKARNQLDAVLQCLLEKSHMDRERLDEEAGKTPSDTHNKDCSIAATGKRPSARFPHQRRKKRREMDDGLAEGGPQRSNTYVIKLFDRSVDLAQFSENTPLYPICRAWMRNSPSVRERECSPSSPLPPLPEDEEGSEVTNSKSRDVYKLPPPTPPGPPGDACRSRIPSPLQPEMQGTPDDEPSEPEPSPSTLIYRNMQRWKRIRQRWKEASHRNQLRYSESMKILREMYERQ
UniProt P49916: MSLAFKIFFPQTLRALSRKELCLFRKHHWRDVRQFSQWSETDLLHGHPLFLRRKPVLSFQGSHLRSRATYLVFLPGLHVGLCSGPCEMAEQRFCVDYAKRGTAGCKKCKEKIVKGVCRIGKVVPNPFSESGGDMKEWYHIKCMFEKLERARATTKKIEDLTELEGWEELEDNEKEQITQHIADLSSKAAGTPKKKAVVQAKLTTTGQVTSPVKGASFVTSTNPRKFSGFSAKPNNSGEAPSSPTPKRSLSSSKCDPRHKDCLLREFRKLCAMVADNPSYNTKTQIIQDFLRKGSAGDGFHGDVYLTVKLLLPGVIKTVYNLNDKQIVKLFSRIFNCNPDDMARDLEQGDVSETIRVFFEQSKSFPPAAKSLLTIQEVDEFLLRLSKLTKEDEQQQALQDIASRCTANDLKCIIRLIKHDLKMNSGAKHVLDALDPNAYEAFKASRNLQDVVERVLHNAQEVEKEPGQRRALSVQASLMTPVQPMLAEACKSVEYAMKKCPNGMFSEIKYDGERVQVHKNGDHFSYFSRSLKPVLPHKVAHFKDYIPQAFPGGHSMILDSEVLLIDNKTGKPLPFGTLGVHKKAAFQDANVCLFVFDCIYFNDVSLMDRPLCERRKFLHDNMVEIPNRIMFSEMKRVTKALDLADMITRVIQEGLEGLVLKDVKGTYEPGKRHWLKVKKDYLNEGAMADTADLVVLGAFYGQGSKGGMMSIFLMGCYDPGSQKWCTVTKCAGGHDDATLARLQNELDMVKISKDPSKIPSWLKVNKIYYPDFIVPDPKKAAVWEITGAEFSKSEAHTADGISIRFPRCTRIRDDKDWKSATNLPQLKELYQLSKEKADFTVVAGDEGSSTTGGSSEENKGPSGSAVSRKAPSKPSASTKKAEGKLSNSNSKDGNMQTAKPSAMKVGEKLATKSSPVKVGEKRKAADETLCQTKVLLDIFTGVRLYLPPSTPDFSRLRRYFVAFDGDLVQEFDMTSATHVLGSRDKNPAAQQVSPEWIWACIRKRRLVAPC

[1] = compound: C/C(=N\NC(=O)C1=CC(=CC=C1)S(=O)(=O)N2CCOCC2)/C3=C(C=CC(=C3)Cl)O
Method in brief: as §1

[2] = compound: C1=CC(=C(C=C1Cl)C2=NC3=NC=CN=C3C(=N2)NC4=CC=NC=C4)F
Method in brief: as §1

[3] = compound: C1=CC(=CC=C1C2=NC3=C(N2)C=C(C=C3)C(=O)N)OC4=CC=C(C=C4)Cl
Method in brief: as §1

[4] = compound: C1=CC2=C(C=CC(=C2)/C=C\3/C(=O)NC(=NCC4=CC=CS4)S3)N=C1
Method in brief: as §1

[5] = compound: C1=CC2=NC=CN=C2C=C1/C=C/3\C(=O)NC(=O)S3
Method in brief: as §1

[6] = compound: C1=CC=C(C=C1)C2=NC(=C(N2)C3=CC=NC=C3)C4=CC(=C(C=C4)Cl)O
Method in brief: as §1

[7] = compound: C1=CC=C2C(=C1)C3=NNC4=CC=CC(=C43)C2=O
Method in brief: as §1

[8] = compound: C1CCN(C1)C(=O)NC2=CC=CC(=C2)NC3=NC=C(C(=N3)NCCC4=CN=CN4)Br
Method in brief: as §1

[9] = compound: C1CN(CCC1(CC2=CC=C(C=C2)Cl)N)C3=NC=NC4=C3C=CN4
Method in brief: as §1

Row | Target | log2 fold change (erlotinib) | log2 fold change [1] | log2 fold change [2] | log2 fold change [3] | log2 fold change [4] | log2 fold change [5] | log2 fold change [6] | log2 fold change [7] | log2 fold change [8] | log2 fold change [9]
1 | LMBRD1 (UniProt Q9NUN5) | inactive: 0.075 | inactive: -0.055 | inactive: 0.211 | inactive: -0.014 | inactive: 0.226 | inactive: 0.113 | inactive: -0.051 | inactive: -0.027 | inactive: -0.142 | inactive: 0.033
2 | LCLAT1 (UniProt Q6UWP7) | inactive: 0.026 | inactive: -0.05 | inactive: 0.093 | inactive: -0.037 | inactive: 0.013 | inactive: 0.019 | inactive: -0.005 | inactive: -0.04 | inactive: -0.012 | inactive: 0.072
3 | LMF2 (UniProt Q9BU23) | inactive: -0.017 | inactive: 0.002 | inactive: -0.005 | active: 0.434 | inactive: 0.055 | inactive: -0.012 | inactive: 0.006 | inactive: 0.052 | inactive: -0.021 | inactive: 0.021
4 | LRPAP1 (UniProt P30533) | inactive: -0.076 | inactive: 0.009 | inactive: -0.012 | inactive: 0.044 | inactive: 0.007 | inactive: 0.04 | inactive: 0.236 | inactive: -0.043 | inactive: 0.024 | inactive: 0.02
5 | LETMD1 isoform 7 (UniProt Q6P1Q0) | inactive: 0.011 | inactive: 0.096 | inactive: 0 | inactive: 0.037 | inactive: 0.103 | inactive: 0.016 | inactive: 0.051 | inactive: -0.112 | inactive: -0.127 | inactive: -0.092
6 | LDHA isoform 3 (UniProt P00338) | inactive: -0.016 | inactive: 0 | inactive: 0.031 | inactive: 0.021 | inactive: -0.008 | inactive: -0.002 | inactive: -0.017 | inactive: -0.008 | inactive: -0.018 | inactive: 0.05
7 | LRBA (UniProt P50851) | inactive: 0.007 | inactive: 0.024 | inactive: 0.068 | inactive: 0.002 | inactive: 0.031 | inactive: 0.051 | inactive: 0.011 | inactive: -0.002 | inactive: 0.012 | inactive: 0.015
8 | LAMTOR4 (UniProt Q0VGL1) | inactive: -0.029 | inactive: -0.031 | inactive: -0.072 | inactive: 0.055 | inactive: 0.073 | inactive: 0.027 | inactive: -0.159 | inactive: 0.037 | inactive: 0.016 | inactive: 0.007
9 | KYAT3 (UniProt Q6YP21) | inactive: 0 | inactive: 0.014 | inactive: 0.016 | inactive: 0.028 | inactive: -0.024 | inactive: -0.011 | inactive: -0.02 | inactive: -0.007 | inactive: 0.035 | inactive: 0.054
10 | LARS (UniProt Q9P2J5) | inactive: -0.025 | inactive: -0.03 | inactive: -0.252 | inactive: -0.011 | inactive: -0.016 | inactive: 0.005 | inactive: -0.04 | inactive: 0.013 | inactive: 0.065 | inactive: -0.123
11 | KTN1 (UniProt Q86UP2) | inactive: -0.013 | inactive: -0.007 | inactive: -0.05 | inactive: -0.08 | inactive: 0.058 | inactive: -0.006 | inactive: -0.04 | inactive: -0.032 | inactive: -0.028 | inactive: -0.129
12 | LDHB (UniProt P07195) | inactive: 0.001 | inactive: 0.002 | inactive: 0.001 | inactive: 0.017 | inactive: -0.012 | inactive: 0.003 | inactive: -0.061 | inactive: -0.004 | inactive: -0.002 | inactive: 0.037
13 | LDAH isoform 2 (UniProt Q9H6V9) | inactive: 0.116 | inactive: 0.052 | inactive: -0.101 | inactive: -0.041 | inactive: 0.047 | inactive: 0 | inactive: 0.018 | inactive: 0 | inactive: 0.06 | inactive: -0.006
14 | LAMTOR2 (UniProt Q9Y2Q5) | inactive: 0.008 | inactive: -0.012 | inactive: 0 | inactive: 0.08 | inactive: -0.02 | inactive: 0.006 | inactive: -0.122 | inactive: 0.028 | inactive: 0.005 | inactive: 0.014
15 | LIN28B (UniProt Q6ZN17) | inactive: -0.026 | inactive: -0.028 | inactive: -0.21 | inactive: 0.046 | inactive: -0.096 | inactive: 0.017 | inactive: -0.006 | inactive: -0.004 | inactive: -0.023 | inactive: -0.094
16 | LRRC59 (UniProt Q96AG4) | inactive: -0.001 | inactive: -0.006 | inactive: -0.003 | inactive: 0.005 | inactive: -0.025 | inactive: -0.003 | inactive: 0.053 | inactive: 0.032 | inactive: -0.009 | inactive: 0.017
17 | LMAN2L isoform 2 (UniProt Q9H0V9) | inactive: 0.051 | inactive: 0.015 | inactive: -0.027 | inactive: -0.067 | inactive: 0.036 | inactive: 0.056 | inactive: 0.01 | inactive: 0.002 | inactive: -0.064 | inactive: 0.009
18 | LAMP2 isoform 2 (UniProt P13473) | inactive: -0.072 | inactive: 0.02 | inactive: 0.041 | inactive: 0.082 | inactive: -0.022 | inactive: 0.088 | – | inactive: -0.007 | inactive: 0.018 | inactive: 0.049
19 | LMNA (UniProt P02545) | inactive: -0.025 | inactive: 0.116 | inactive: 0.009 | inactive: -0.106 | inactive: -0.031 | inactive: 0.035 | inactive: -0.049 | inactive: -0.171 | inactive: -0.086 | inactive: 0.013
20 | LIN7A (UniProt O14910) | inactive: 0.044 | inactive: -0.014 | inactive: 0.078 | inactive: 0.064 | inactive: 0.048 | inactive: 0.05 | inactive: -0.04 | inactive: -0.047 | inactive: -0.077 | inactive: 0.029
21 | LRG1 (UniProt P02750) | inactive: 0.053 | – | inactive: 0.306 | inactive: -0.425 | – | – | inactive: -0.074 | – | inactive: -0.108 | inactive: -0.028
22 | LRFN1 (UniProt Q9P244) | inactive: 0.059 | – | inactive: -0.028 | inactive: 0 | – | inactive: 0.004 | inactive: -0.038 | – | inactive: -0.1 | inactive: 0.052
23 | LRIF1 (UniProt Q5T3J3) | inactive: 0.079 | inactive: -0.052 | inactive: -0.195 | inactive: 0.076 | inactive: -0.09 | inactive: 0.007 | inactive: -0.094 | inactive: 0.021 | inactive: -0.048 | inactive: 0.08
24 | LARP4B (UniProt Q92615) | inactive: -0.016 | inactive: 0.032 | inactive: -0.042 | inactive: 0.017 | inactive: -0.057 | inactive: -0.03 | inactive: 0.063 | inactive: -0.06 | inactive: -0.013 | inactive: -0.042
25 | LIN37 (UniProt Q96GY3) | inactive: 0.428 | inactive: -0.516 | – | inactive: -0.204 | inactive: 0.153 | – | – | inactive: -0.005 | – | –
26 | LIG3 (UniProt P49916) | inactive: 0.344 | inactive: -0.241 | – | inactive: 0.315 | inactive: -0.099 | – | – | inactive: 0.01 | – | –
27 | LDLR (UniProt P01130) | inactive: -0.035 | inactive: 0.003 | inactive: -0.04 | inactive: 0.03 | inactive: -0.018 | inactive: 0.025 | inactive: 0.011 | inactive: -0.113 | inactive: 0.025 | inactive: 0.051
28 | LIMD2 (UniProt Q9BT23) | inactive: -0.035 | inactive: -0.115 | – | inactive: 0.015 | inactive: 0.124 | – | – | inactive: -0.011 | inactive: 0.03 | inactive: -0.154

Whole records from above. Order of values: log2 fold change (erlotinib)	log2 fold change [1]	log2 fold change [2]	log2 fold change [3]	log2 fold change [4]	log2 fold change [5]	log2 fold change [6]	log2 fold change [7]	log2 fold change [8]	log2 fold change [9]
LAMTOR4 (UniProt Q0VGL1) is listed as inactive: -0.029	inactive: -0.031	inactive: -0.072	inactive: 0.055	inactive: 0.073	inactive: 0.027	inactive: -0.159	inactive: 0.037	inactive: 0.016	inactive: 0.007
LMNA (UniProt P02545) is listed as inactive: -0.025	inactive: 0.116	inactive: 0.009	inactive: -0.106	inactive: -0.031	inactive: 0.035	inactive: -0.049	inactive: -0.171	inactive: -0.086	inactive: 0.013
